Among the data in publication doi:10.1101/2021.10.14.464399 are binding values, retold here.

Positions count from the first letter of the chain named. Names and notes keep the numbering of the source. Results are given in words; binding and its absence hold for the method and conditions named. Some binding calls cover weakened binding; strength is not graded here.

The target of this assay is T1, ELONGATED HYPOCOTYL5 (HY5) (Arabidopsis thaliana) (UniProt O24646).
T1 sequence: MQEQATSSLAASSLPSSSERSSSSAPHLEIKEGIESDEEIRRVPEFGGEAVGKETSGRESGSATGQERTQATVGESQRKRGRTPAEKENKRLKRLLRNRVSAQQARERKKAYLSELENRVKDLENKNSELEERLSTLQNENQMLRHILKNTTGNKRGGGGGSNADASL
The experiment in a line: two-hybrid.

B1: BBX21^P314L (protein, UniProt Q9LQZ7 1-331)
chain: MKIRCDVCDKEEASVFCTADEASLCGGCDHQVHHANKLASKHLRFSLLYPSSSNTSSPLCDICQDKKALLFCQQDRAILCKDCDSSIHAANEHTKKHDRFLLTGVKLSATSSVYKPTSKSSSSSSSNQDFSVPGSSISNPPPLKKPLSAPPQSNKIQPFSKINGGDASVNQWGSTSTISEYLMDTLPGWHVEDFLDSSLPTYGFSKSGDDDGVLPYMEPEDDNNTKRNNNNNNNNNNNTVSLPSKNLGIWVPQIPQTLPSSYPNQYFSQDNNIQFGMYNKETSPEVVSFAPIQNMKQQGQNNKRWYDDGGFTVLQITPPPLSSNKKFRSFW
On to B1, for which the binding result is “binds”.

B2: BBX21 (protein, UniProt Q9LQZ7 1-331)
chain: B1 chain with L314P
With B2, the binding entry is reported as “binds”.
